{
  "source": "PubChem BioAssay AID556",
  "about": "(SRMLSC, 2006)",
  "note": "The list shows a part of the results.",
  "data": [
    {"test_system": "diphosphomevalonate decarboxylase (Streptococcus pneumoniae D39)", "assay": "S. pneumoniae DPM-DC inhibitors, primary screen, biochemical, PK/LDH-coupled NADH fluorescence (AID 556);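 note: kinetic rate of NADH fluorescence loss reporting ADP formed by the decarboxylase; 0% = full reaction rate with carrier and 100% = no-substrate background rate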", "conditions": "purified DPM-DC, measured here: pilot screen trials, at 10 µM, stronger effect = higher value", "units": {"inhibition": "%"}, "values": [
      {"smiles": "Fc1ccccc1NC1CCN(Cc2ccccc2)CC1", "inhibition": 1}
    ]}
  ]
}
